From paper PMC4882342
These are yes or no findings as the source states them, for the method shown. In cells and extracts the contact can be indirect. Some entries that bind do so weakly or less than the wild type.

The chains behind the UniProt entries cited, without tags or fusion partners.
UniProt Q91YD1: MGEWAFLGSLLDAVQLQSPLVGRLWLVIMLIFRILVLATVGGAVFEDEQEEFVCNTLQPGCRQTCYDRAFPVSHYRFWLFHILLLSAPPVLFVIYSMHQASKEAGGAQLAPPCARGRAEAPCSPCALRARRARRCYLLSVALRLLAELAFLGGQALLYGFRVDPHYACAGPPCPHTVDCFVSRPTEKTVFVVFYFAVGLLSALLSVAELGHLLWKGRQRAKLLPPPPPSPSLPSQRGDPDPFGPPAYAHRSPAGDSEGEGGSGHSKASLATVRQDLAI
UniProt O54851: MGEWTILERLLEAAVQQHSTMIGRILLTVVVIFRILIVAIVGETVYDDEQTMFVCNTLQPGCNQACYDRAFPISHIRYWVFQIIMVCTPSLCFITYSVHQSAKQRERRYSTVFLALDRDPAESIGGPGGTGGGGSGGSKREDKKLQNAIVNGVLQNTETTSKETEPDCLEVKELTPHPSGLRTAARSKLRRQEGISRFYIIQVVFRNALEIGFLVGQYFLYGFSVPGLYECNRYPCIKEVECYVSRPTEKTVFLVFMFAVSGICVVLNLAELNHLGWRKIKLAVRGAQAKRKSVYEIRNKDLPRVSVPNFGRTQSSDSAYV

Assays:
[1] = target: Cx30.2-EGFP fusion protein (mouse) (UniProt Q91YD1); assay: co-IP; uMACS GFP Isolation Kit: magnetic beads coupled to anti-GFP antibody; extracts of co-transfected HeLa cells in IP buffer (0.5% NP-40, 20 mM Tris, 60 mM NaCl, pH 7.4); Western blot with anti-Cx30.2, anti-Cx36, anti-GFP
[2] = target: Cx36-EGFP fusion protein (mouse) (UniProt O54851); assay: as above
[3] = target: Connexin30.2 (Cx30.2), untagged (mouse) (UniProt Q91YD1); assay: co-IP; anti-Cx30.2 antibodies coupled to beads; untagged Cx30.2 and Cx36 co-expressed in HeLa cells; Cx36 detected

Connexin30.2 (Cx30.2), untagged (from UniProt Q91YD1 1-278)
binding [1]: binds | binding [2]: binds

Connexin36 (Cx36), untagged (from UniProt O54851 1-321)
binding [3]: binds | binding [1]: binds | binding [2]: binds
